# Reference: the supplement of paper PMC10849652
# The chains behind the UniProt entries cited, without tags or fusion partners. Where a name states a change or a piece, a line headed by the entry shows the natural chain unless it says otherwise.
# UniProt Q9Y256: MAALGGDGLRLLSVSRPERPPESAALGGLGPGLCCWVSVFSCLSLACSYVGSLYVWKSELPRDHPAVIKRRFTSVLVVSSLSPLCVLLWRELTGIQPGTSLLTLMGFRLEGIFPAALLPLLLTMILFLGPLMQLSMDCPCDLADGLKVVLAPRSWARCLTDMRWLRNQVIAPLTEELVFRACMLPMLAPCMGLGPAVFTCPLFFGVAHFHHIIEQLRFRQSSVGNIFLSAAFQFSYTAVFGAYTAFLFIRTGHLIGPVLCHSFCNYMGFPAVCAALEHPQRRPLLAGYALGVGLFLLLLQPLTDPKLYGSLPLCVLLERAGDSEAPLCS
# UniProt Q06587: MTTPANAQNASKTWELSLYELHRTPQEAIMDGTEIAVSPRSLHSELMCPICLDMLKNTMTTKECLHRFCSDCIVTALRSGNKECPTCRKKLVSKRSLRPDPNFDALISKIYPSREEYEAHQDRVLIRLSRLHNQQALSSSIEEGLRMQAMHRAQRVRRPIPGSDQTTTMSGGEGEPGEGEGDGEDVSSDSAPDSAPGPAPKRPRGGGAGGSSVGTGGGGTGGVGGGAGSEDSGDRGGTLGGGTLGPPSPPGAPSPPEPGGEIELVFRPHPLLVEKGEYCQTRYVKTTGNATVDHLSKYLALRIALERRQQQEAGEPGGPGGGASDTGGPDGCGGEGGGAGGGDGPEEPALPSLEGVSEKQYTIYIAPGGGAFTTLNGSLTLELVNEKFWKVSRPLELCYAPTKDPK
# UniProt P62745, whole entry, looked up: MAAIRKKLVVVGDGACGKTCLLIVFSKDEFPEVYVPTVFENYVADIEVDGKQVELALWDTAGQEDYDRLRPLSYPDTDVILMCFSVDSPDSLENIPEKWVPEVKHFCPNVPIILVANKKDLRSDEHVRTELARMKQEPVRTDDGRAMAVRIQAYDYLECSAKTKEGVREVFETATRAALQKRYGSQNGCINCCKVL
# UniProt P22670: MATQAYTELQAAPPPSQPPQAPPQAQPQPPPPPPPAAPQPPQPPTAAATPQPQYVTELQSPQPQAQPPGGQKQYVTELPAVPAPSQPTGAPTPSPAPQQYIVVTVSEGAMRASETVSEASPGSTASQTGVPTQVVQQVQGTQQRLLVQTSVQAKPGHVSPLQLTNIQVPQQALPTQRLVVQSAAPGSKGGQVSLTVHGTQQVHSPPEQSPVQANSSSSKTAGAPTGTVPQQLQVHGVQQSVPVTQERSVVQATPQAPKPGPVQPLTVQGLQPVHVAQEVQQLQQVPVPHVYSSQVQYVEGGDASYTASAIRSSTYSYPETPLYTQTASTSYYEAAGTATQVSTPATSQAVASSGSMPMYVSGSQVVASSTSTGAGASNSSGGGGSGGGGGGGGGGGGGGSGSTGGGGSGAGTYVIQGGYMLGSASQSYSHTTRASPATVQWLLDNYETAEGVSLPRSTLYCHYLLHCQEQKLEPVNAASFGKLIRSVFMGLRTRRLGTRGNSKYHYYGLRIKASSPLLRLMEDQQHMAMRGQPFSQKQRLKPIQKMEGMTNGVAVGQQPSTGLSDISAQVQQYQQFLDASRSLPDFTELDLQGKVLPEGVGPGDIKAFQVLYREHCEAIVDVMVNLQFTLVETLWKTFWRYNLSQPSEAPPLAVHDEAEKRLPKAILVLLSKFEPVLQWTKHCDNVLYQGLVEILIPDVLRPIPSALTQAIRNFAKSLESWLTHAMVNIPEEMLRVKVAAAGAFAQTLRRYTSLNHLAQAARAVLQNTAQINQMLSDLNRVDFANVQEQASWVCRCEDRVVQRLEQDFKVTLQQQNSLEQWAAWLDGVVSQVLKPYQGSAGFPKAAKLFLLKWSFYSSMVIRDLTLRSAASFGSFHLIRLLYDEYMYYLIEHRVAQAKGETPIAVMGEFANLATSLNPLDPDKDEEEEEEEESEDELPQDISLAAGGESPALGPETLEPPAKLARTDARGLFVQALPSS
# UniProt Q9P0P0: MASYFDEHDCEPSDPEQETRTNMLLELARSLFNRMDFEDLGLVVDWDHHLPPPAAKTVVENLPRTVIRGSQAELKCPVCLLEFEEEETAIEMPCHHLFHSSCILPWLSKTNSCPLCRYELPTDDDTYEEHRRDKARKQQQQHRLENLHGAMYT
# UniProt Q06330: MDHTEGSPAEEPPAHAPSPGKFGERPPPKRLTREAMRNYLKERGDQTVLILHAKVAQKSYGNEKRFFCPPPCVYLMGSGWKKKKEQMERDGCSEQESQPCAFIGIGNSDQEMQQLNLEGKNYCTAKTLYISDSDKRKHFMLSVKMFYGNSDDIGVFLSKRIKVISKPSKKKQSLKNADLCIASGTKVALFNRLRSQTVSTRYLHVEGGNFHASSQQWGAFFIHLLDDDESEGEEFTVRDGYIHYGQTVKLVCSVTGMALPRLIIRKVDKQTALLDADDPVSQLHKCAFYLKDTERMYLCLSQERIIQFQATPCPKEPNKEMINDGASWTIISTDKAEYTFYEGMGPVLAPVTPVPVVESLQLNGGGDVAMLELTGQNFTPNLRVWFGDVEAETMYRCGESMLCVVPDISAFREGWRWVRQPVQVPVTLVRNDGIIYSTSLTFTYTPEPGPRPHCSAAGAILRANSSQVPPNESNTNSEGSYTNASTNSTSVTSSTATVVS
# UniProt Q14498: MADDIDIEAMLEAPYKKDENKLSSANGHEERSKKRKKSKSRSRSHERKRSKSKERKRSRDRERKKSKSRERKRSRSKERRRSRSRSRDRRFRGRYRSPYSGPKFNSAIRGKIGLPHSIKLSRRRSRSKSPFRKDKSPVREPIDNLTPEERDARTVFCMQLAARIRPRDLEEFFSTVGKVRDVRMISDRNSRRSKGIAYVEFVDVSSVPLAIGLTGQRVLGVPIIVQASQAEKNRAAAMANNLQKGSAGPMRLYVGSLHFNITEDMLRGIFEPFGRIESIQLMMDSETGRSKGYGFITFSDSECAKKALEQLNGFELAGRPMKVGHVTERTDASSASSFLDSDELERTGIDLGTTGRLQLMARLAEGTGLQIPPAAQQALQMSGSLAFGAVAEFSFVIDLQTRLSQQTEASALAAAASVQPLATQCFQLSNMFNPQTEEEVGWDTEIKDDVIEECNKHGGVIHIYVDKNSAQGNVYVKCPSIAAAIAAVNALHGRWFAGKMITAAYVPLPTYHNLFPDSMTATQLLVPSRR
# UniProt Q96D71: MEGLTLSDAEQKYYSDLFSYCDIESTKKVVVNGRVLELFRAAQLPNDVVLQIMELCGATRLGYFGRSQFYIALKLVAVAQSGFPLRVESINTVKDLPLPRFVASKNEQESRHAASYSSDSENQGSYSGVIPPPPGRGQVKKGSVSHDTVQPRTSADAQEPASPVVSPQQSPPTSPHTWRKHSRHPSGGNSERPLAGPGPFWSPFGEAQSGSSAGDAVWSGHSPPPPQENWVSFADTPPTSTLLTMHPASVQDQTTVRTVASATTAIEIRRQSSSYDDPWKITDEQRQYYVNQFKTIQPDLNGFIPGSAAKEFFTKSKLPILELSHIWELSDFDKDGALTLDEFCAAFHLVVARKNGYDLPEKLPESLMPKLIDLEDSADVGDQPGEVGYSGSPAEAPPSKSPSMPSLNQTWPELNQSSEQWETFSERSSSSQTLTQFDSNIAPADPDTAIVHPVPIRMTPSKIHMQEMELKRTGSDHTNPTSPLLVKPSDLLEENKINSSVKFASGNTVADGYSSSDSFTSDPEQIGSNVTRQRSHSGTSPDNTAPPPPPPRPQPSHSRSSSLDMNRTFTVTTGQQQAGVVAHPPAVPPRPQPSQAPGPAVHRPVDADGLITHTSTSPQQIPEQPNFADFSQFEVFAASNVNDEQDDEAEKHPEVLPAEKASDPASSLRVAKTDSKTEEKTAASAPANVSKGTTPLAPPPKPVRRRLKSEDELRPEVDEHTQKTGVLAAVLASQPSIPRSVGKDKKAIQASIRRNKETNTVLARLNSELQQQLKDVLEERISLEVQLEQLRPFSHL
# UniProt Q96K19: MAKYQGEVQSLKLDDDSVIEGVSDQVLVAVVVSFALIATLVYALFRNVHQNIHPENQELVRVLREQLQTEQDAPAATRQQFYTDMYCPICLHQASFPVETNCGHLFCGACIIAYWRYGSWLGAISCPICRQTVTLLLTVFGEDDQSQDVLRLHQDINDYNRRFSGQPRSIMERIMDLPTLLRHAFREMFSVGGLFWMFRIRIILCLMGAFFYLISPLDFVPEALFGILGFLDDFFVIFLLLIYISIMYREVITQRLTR
# UniProt Q9HBH5: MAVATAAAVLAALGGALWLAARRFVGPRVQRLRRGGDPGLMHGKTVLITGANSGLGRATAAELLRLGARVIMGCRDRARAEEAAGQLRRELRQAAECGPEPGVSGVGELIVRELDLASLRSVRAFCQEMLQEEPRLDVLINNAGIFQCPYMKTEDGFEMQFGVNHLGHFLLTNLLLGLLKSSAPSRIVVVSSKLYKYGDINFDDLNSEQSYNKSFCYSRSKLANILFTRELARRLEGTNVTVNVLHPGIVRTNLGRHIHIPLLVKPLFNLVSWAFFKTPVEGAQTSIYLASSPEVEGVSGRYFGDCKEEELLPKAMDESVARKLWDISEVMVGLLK
# UniProt O15258: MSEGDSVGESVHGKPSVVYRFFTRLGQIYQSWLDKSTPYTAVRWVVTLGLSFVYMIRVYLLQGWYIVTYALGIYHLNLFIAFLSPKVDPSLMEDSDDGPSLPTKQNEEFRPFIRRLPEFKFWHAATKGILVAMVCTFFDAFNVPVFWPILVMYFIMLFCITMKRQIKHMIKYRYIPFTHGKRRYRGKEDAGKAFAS
# UniProt Q9BWF3: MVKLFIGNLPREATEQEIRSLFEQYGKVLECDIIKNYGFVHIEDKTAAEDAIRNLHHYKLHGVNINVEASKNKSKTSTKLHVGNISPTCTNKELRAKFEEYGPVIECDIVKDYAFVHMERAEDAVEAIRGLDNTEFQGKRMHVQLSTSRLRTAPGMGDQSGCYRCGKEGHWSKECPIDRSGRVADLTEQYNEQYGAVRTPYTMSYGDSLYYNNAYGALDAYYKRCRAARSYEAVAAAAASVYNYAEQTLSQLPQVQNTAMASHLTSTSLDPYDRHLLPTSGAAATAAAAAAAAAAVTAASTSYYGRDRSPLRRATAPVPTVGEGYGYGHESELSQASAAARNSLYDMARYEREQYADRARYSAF
# UniProt Q9BQY4: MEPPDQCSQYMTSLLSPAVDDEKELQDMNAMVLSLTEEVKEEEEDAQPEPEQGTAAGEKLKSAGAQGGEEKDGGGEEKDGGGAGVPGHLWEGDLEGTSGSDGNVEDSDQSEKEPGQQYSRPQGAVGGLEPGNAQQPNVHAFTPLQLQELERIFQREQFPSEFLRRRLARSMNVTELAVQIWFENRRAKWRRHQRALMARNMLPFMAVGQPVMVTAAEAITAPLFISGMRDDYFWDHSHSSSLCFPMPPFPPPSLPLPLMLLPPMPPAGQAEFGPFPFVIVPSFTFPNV
# UniProt Q96DM3: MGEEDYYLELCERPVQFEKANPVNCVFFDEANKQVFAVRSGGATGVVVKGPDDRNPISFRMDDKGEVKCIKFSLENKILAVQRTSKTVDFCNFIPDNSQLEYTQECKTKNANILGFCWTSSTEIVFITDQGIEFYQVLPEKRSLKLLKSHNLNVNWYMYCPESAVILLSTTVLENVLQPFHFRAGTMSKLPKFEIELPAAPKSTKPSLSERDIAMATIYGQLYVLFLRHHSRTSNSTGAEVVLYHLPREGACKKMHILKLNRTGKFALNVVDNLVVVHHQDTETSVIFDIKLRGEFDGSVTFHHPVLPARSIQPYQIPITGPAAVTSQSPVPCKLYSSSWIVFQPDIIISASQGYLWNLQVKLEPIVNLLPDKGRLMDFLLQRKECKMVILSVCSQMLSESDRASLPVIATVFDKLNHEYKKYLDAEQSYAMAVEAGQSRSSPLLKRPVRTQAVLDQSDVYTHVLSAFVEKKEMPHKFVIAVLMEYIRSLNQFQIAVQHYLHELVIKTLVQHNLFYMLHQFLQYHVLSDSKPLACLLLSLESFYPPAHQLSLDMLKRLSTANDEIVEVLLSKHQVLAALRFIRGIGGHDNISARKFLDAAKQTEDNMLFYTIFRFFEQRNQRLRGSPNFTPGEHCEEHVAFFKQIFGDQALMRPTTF
# UniProt Q86XS8: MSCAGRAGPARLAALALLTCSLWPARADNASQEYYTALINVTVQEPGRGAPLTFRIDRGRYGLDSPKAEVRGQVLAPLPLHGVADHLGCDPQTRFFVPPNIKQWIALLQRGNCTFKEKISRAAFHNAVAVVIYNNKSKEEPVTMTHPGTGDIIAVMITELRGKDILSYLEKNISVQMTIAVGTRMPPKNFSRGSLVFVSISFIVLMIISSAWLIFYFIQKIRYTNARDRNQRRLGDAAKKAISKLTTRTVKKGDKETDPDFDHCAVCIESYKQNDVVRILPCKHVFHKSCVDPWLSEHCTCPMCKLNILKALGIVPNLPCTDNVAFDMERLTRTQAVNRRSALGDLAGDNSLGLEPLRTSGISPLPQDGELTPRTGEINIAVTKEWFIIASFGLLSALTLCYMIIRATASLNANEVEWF
# Some of the results follow.
# Legend:
# Test in all cases: log2 fold change, soluble protein after heating vs DMSO (PISA); higher = thermal stabilisation; K562 cells, 10 uM, 30 min; active = over 0.2 and 3.5 SD of the protein, either way, in both replicates (recomputed)
# [1] = compound: CC[C@@H]1C(=O)N(C)c2cnc(Nc3ccc(C(=O)NC4CCN(C)CC4)cc3OC)nc2N1C1CCCC1
# Method in brief: (§1)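 Aliquots of K562 cells (2×10^6 cells/mL) treated with 10 μM compound for 30 min were heated for 3 min over 48°C-58°C. After pooling and extraction in PBS with 0.5% NP-40 at 4°C, soluble protein from a 21,000xg, 90 min spin was quantified by TMTpro 16plex LC-MS/MS with channel sums equalised. Thermal stability is expressed against control samples, from duplicates, as a log2 fold change.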
# volasertib = compound: CC[C@@H]1C(=O)N(C)c2cnc(Nc3ccc(C(=O)N[C@H]4CC[C@H](N5CCN(CC6CC6)CC5)CC4)cc3OC)nc2N1C(C)C [volasertib]
# Method in brief: as §1
# [2] = compound: CC[C@H](C)N1C=C(C2=C(C=C(C=C21)C3=CN=C(C=C3)N4CCNCC4)C(=O)NCC5=C(C=C(NC5=O)C)C)C
# Method in brief: as §1
# epoxomicin = compound: CC[C@H](C)[C@@H](C(=O)N[C@@H]([C@@H](C)O)C(=O)N[C@@H](CC(C)C)C(=O)[C@]1(CO1)C)NC(=O)[C@H]([C@@H](C)CC)N(C)C(=O)C [epoxomicin]
# Method in brief: as §1
# [3] = compound: CCn1c(C(=O)N(C2CC2)C2CC2)cc2c3c(ncn3C)c(Nc3cc(C)n(C)n3)nc21
# Method in brief: as §1
# [4] = compound: CCn1cc(-c2ccnc3[nH]c(-c4cccc(CN(C)C)c4)cc23)c(-c2ccc(NC(=O)N(C)C)cc2)n1
# Method in brief: as §1
# [5] = compound: CN(C)CC(=O)Nc1ccc2[nH]c(=O)c3ccccc3c2c1
# Method in brief: as §1
# rosiglitazone = compound: CN(CCOC1=CC=C(C=C1)C[C@H]2C(=O)NC(=O)S2)C3=CC=CC=N3 (racemic) [rosiglitazone]
# Method in brief: as §1
# [6] = compound: CN1C2=C(C3=C1C(=O)N(N=C3)CC4=CC(=CC=C4)N)SC(=C2)S(=O)C
# Method in brief: as §1
# [7] = compound: CN1CCC(CNc2ccc3ncc(-c4cccc(OC(F)(F)F)c4)n3n2)CC1
# Method in brief: as §1
Target,log2 fold change [1],log2 fold change (volasertib),log2 fold change [2],log2 fold change (epoxomicin),log2 fold change [3],log2 fold change [4],log2 fold change [5],log2 fold change (rosiglitazone),log2 fold change [6],log2 fold change [7]
RCE1 (UniProt Q9Y256),inactive: -0.111,inactive: 0.035,inactive: -0.001,inactive: -0.064,inactive: 0.033,inactive: -0.183,inactive: -0.023,inactive: 0.114,inactive: -0.063,inactive: 0.085
RING1 (UniProt Q06587),inactive: -0.076,inactive: -0.283,inactive: 0.071,inactive: 0.054,inactive: -0.035,inactive: -0.114,inactive: 0.197,inactive: 0.059,,inactive: -0.187
RIF1 (UniProt Q5UIP0),inactive: -0.023,inactive: -0.12,inactive: 0.052,inactive: -0.057,inactive: 0.152,inactive: -0.039,inactive: -0.015,,inactive: 0.314,inactive: 0.078
RHOB (UniProt P62745),inactive: 0.087,inactive: 0.075,inactive: -0.029,inactive: 0.088,inactive: -0.07,inactive: -0.151,inactive: -0.019,inactive: 0.03,inactive: 0.059,inactive: 0.108
RFX1 (UniProt P22670),inactive: 0.033,inactive: -0.07,inactive: 0.03,inactive: 0.069,inactive: -0.054,inactive: -0.045,inactive: 0.024,inactive: -0.004,inactive: -0.025,inactive: 0.087
RNF181 (UniProt Q9P0P0),inactive: 0.024,inactive: 0.073,inactive: 0,inactive: -0.022,inactive: -0.023,inactive: 0.014,inactive: -0.021,inactive: -0.02,inactive: -0.045,inactive: 0.051
RBMX (UniProt P38159),inactive: 0.166,inactive: 0.131,inactive: -0.017,inactive: -0.316,inactive: -0.008,inactive: 0.264,inactive: -0.039,inactive: -0.114,inactive: 0.25,inactive: 0.289
RECQL (UniProt P46063),inactive: -0.032,inactive: -0.014,inactive: 0.002,inactive: 0,,inactive: -0.021,inactive: 0.016,,inactive: -0.076,inactive: 0.058
RBPJ (UniProt Q06330),inactive: 0.05,inactive: 0.039,inactive: -0.007,inactive: 0.022,inactive: 0.019,inactive: -0.014,inactive: -0.007,inactive: -0.006,inactive: -0.048,inactive: 0.023
RBM39 (UniProt Q14498),inactive: -0.183,active: -0.487,inactive: 0.038,inactive: -0.027,,inactive: 0.079,inactive: 0.013,,inactive: 0.071,inactive: -0.045
REPS1 (UniProt Q96D71),inactive: 0.069,inactive: -0.152,inactive: -0.053,inactive: -0.118,inactive: 0.143,inactive: 0.152,inactive: -0.072,inactive: -0.108,inactive: 0.226,inactive: -0.181
RBM42 (UniProt Q9BTD8),inactive: 0.123,inactive: 0.09,inactive: 0.042,inactive: -0.085,inactive: -0.084,inactive: 0.177,inactive: -0.015,inactive: -0.06,inactive: 0.106,inactive: 0.213
RNF170 (UniProt Q96K19),inactive: -0.132,inactive: 0.462,inactive: 0.095,inactive: -0.019,,inactive: 0.127,inactive: 0.23,inactive: 0.101,inactive: 0.017,inactive: -0.047
RBP5 (UniProt P82980),inactive: 0.22,inactive: 0.287,inactive: 0.048,inactive: 0.081,inactive: -0.229,inactive: -0.146,,inactive: 0.033,inactive: -0.093,inactive: -0.128
RINT1 (UniProt Q6NUQ1),inactive: 0.155,inactive: -0.122,inactive: 0.105,inactive: -0.294,inactive: -0.134,inactive: 0,inactive: 0.044,inactive: 0.065,inactive: 0.286,inactive: 0.071
RDH14 (UniProt Q9HBH5),inactive: -0.007,inactive: -0.039,inactive: -0.017,inactive: -0.052,inactive: 0.049,inactive: -0.051,inactive: -0.02,inactive: 0.082,inactive: -0.147,inactive: 0.222
RNF187 (UniProt Q5TA31),inactive: 0.155,inactive: 0.074,inactive: 0.061,inactive: 0.15,,inactive: 0.002,inactive: 0.24,,inactive: -0.104,inactive: -0.073

Target,log2 fold change [1],log2 fold change (volasertib),log2 fold change [2],log2 fold change (epoxomicin),log2 fold change [3],log2 fold change [4],log2 fold change [5],log2 fold change (rosiglitazone),log2 fold change [6],log2 fold change [7]
RHEB (UniProt Q15382),inactive: 0.038,inactive: 0.013,inactive: -0.014,inactive: 0.002,,inactive: 0.02,inactive: 0.016,,inactive: -0.068,inactive: -0.003
RNASEH2B (UniProt Q5TBB1),inactive: -0.142,inactive: -0.156,inactive: 0.059,inactive: 0.11,inactive: -0.14,inactive: -0.165,inactive: 0.089,inactive: 0.122,inactive: -0.065,inactive: -0.348
RER1 (UniProt O15258),inactive: -0.008,inactive: 0.05,inactive: -0.079,inactive: -0.037,inactive: 0.023,inactive: 0.064,inactive: 0.02,inactive: 0,inactive: -0.032,inactive: 0.095
RBM4 (UniProt Q9BWF3),inactive: -0.043,active: -0.3,inactive: 0.057,inactive: -0.018,,inactive: 0.059,inactive: -0.024,,inactive: 0.129,inactive: -0.091
RELCH isoform 2 (UniProt Q9P260),inactive: -0.322,,inactive: 0.102,inactive: 0.001,inactive: 0,inactive: -0.004,inactive: 0.105,inactive: 0.128,inactive: -0.006,inactive: -0.165
RC3H1 (UniProt Q5TC82),inactive: 0.139,inactive: 0.236,,inactive: -0.173,inactive: 0.022,inactive: 0.07,inactive: 0.048,,inactive: 0.236,inactive: -0.134
RBSN (UniProt Q9H1K0),inactive: -0.124,inactive: -0.404,inactive: 0.186,,inactive: -0.081,inactive: -0.05,inactive: -0.056,inactive: 0.133,inactive: 0.064,inactive: -0.311
RHOA (UniProt P61586),inactive: -0.098,inactive: 0.134,inactive: 0.065,inactive: 0.049,,inactive: 0.071,inactive: -0.025,,inactive: -0.037,inactive: 0.01
RHOXF2 (UniProt Q9BQY4),inactive: 0.014,inactive: 0.061,inactive: -0.046,inactive: 0.024,,inactive: 0.086,inactive: -0.028,,inactive: 0.074,inactive: -0.073
RCN3 (UniProt Q96D15),inactive: -0.033,inactive: 0.053,inactive: -0.031,inactive: -0.118,,inactive: -0.007,inactive: -0.019,,inactive: -0.03,inactive: -0.234
RNF14 (UniProt Q9UBS8),inactive: -0.054,active: -0.288,inactive: 0.037,inactive: -0.075,,inactive: -0.032,inactive: -0.019,,inactive: -0.049,inactive: -0.025
RDH11 (UniProt Q8TC12),inactive: -0.213,active: -0.543,inactive: 0.015,inactive: 0.045,,inactive: -0.072,inactive: 0.037,,inactive: 0.027,active: -0.466
RNF2 (UniProt Q99496),inactive: -0.045,inactive: -0.169,active: -0.307,inactive: 0.168,,inactive: 0.012,inactive: 0.007,,inactive: 0.063,inactive: -0.03
RIOK2 (UniProt Q9BVS4),inactive: 0.133,inactive: 0.267,inactive: 0.015,inactive: -0.032,,inactive: -0.013,inactive: -0.038,,inactive: 0.085,inactive: 0.202
RMC1 (UniProt Q96DM3),inactive: -0.192,active: -0.416,inactive: 0.095,inactive: -0.025,,inactive: 0.042,inactive: -0.023,,inactive: -0.039,inactive: -0.146
RDH13 (UniProt Q8NBN7),inactive: -0.154,inactive: -0.06,inactive: 0.06,inactive: 0.022,,inactive: -0.058,inactive: 0.051,,inactive: -0.059,active: -0.318
RNF130 (UniProt Q86XS8),inactive: 0.149,inactive: 0.071,,,inactive: -0.029,,,inactive: 0.036,,

# Another view of some results above:
Target | log2 fold change [1] | log2 fold change (volasertib) | log2 fold change [2] | log2 fold change (epoxomicin) | log2 fold change [3] | log2 fold change [4] | log2 fold change [5] | log2 fold change (rosiglitazone) | log2 fold change [6] | log2 fold change [7]
RHEB (UniProt Q15382) | inactive: 0.038 | inactive: 0.013 | inactive: -0.014 | inactive: 0.002 |  | inactive: 0.02 | inactive: 0.016 |  | inactive: -0.068 | inactive: -0.003
RER1 (UniProt O15258) | inactive: -0.008 | inactive: 0.05 | inactive: -0.079 | inactive: -0.037 | inactive: 0.023 | inactive: 0.064 | inactive: 0.02 | inactive: 0 | inactive: -0.032 | inactive: 0.095
RC3H1 (UniProt Q5TC82) | inactive: 0.139 | inactive: 0.236 |  | inactive: -0.173 | inactive: 0.022 | inactive: 0.07 | inactive: 0.048 |  | inactive: 0.236 | inactive: -0.134
RBSN (UniProt Q9H1K0) | inactive: -0.124 | inactive: -0.404 | inactive: 0.186 |  | inactive: -0.081 | inactive: -0.05 | inactive: -0.056 | inactive: 0.133 | inactive: 0.064 | inactive: -0.311
RHOXF2 (UniProt Q9BQY4) | inactive: 0.014 | inactive: 0.061 | inactive: -0.046 | inactive: 0.024 |  | inactive: 0.086 | inactive: -0.028 |  | inactive: 0.074 | inactive: -0.073
RCN3 (UniProt Q96D15) | inactive: -0.033 | inactive: 0.053 | inactive: -0.031 | inactive: -0.118 |  | inactive: -0.007 | inactive: -0.019 |  | inactive: -0.03 | inactive: -0.234
